In article PMC5655547:
Results are given in words; binding and its absence hold for the method and conditions named.

Protein sequences, listed by entry. Tags and fused reporters are not part of them. Lines headed by an entry give the natural chain unless they say otherwise; changes in a name come on top.
UniProt P0CG48: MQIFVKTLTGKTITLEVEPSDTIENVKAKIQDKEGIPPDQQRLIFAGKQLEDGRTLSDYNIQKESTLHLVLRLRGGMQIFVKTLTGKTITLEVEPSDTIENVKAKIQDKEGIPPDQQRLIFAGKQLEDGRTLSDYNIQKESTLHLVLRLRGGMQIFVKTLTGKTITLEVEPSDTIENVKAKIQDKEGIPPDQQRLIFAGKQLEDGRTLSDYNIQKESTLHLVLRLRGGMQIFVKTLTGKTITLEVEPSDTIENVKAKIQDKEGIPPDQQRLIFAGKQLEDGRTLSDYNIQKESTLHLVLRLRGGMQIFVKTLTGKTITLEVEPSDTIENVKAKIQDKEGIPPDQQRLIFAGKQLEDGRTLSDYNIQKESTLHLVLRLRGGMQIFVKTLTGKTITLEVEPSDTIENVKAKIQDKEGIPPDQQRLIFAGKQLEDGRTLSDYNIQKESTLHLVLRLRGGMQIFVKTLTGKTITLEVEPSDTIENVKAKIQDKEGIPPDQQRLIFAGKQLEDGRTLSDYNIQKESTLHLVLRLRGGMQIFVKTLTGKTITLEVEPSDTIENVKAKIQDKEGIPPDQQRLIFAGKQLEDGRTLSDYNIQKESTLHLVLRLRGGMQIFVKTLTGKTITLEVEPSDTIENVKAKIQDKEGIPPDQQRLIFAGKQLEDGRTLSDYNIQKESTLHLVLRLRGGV

Target: U-box of UBE4B (E4B, residues 1079-C), tag removed (human) (UniProt O95155)
Experiment: NMR titration; 1H-15N HSQC, chemical shift perturbations; 25 mM sodium phosphate, 100 mM NaCl, 5% D2O, 298 K, 600 MHz; both purified

K48-diUb (from UniProt P0CG48 1-76; P0CG48 1-74)
binding: no binding
